Assay results published in doi:10.1101/2020.07.12.199372.
Read-outs that look alike come from different tables or passages of the source. No constants are given. Whether binding was seen depends on the method and setting. Binding seen in cells or lysates may run through a third protein. Here binding means that the protein was enriched with, or labelled near, the bait; the list need not be complete.

Chains of the proteins cited; added tags and fusions are not shown.
UniProt Q9UL03: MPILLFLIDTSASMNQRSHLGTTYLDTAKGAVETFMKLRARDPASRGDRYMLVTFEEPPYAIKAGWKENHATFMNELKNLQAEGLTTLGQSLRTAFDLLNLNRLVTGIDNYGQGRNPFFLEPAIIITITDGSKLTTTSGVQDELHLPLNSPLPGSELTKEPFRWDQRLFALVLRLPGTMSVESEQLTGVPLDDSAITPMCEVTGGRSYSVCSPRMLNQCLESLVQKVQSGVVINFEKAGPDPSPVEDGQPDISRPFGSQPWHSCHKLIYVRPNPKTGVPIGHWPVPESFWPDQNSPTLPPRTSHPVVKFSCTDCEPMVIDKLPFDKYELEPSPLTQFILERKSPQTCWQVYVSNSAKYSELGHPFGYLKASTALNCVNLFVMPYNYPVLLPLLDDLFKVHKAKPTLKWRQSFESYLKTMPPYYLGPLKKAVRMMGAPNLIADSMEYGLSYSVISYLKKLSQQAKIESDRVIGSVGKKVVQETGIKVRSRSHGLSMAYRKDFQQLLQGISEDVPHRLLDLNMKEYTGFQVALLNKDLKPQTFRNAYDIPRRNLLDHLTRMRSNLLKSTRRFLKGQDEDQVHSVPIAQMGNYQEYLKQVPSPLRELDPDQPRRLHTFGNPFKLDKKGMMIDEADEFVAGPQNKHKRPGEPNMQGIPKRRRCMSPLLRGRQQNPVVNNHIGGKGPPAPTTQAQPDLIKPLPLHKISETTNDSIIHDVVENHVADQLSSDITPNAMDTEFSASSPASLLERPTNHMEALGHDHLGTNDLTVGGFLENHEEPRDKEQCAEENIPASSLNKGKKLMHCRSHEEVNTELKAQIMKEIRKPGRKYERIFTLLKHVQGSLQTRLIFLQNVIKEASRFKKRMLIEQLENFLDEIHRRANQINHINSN
UniProt P30153: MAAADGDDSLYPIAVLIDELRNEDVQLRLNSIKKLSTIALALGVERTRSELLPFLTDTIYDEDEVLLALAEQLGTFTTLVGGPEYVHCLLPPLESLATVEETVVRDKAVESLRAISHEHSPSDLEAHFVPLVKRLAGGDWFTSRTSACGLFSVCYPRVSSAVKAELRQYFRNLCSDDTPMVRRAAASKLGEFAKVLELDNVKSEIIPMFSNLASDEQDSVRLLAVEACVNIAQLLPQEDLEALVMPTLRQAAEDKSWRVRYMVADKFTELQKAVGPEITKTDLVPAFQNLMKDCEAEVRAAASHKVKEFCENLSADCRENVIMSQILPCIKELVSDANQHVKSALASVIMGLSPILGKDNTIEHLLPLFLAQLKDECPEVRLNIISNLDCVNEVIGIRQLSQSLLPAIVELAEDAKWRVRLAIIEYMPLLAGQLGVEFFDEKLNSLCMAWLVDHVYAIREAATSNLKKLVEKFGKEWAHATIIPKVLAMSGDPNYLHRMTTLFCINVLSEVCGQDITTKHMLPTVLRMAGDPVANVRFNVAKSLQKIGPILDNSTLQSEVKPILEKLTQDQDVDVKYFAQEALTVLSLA
UniProt P36873: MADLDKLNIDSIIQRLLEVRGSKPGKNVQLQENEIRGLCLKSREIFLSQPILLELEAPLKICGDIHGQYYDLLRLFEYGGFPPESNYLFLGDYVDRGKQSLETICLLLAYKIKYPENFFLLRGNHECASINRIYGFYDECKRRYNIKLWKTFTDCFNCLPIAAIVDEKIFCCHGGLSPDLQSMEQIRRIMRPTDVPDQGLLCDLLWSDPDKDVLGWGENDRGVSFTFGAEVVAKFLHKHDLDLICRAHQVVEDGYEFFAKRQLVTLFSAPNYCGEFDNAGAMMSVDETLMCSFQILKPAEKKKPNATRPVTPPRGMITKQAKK
UniProt P30154: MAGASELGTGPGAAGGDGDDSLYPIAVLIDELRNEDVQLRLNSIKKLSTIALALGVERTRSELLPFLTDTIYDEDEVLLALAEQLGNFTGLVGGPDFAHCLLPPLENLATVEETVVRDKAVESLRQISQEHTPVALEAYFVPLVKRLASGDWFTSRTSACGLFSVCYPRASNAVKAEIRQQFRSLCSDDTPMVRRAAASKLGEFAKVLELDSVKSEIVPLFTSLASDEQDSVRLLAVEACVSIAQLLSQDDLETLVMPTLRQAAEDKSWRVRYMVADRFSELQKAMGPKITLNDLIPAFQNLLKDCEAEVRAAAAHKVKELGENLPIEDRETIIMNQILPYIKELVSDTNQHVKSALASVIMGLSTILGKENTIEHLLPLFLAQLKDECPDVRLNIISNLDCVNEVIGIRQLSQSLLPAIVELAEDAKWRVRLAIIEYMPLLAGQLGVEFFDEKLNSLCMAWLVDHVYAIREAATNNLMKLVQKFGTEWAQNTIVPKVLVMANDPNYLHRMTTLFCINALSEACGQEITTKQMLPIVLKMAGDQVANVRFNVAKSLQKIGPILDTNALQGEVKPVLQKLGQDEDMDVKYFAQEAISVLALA
UniProt P67775: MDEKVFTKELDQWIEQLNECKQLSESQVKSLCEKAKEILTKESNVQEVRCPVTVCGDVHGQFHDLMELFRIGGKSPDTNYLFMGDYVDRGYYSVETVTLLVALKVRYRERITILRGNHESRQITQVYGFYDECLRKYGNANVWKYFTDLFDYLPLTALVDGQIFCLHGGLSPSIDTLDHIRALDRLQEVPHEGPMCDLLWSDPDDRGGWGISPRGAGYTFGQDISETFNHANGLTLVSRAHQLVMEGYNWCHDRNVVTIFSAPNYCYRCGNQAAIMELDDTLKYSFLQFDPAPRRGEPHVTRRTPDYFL

Experiments:
[1] = biological target: Integrator complex subunit INTS6 (human (endogenous in THP-1, MV4;11 and HeLa)) (UniProt Q9UL03); test: affinity purification with mass spectrometry
[2] = biological target: Integrator complex subunit INTS6 (human (endogenous in THP-1, MV4;11 and HeLa)) (UniProt Q9UL03); test: affinity purification with mass spectrometry; remark: listed apart in the source

| Substance | binding [1] | binding [2] |
| --- | --- | --- |
| PPP2R1A structural subunit of the PP2A phosphatase complex (from UniProt P30153 1-589) | binds | binds |
| PPP1CC subunit of PP1 (from UniProt P36873 1-323) (enzyme) | binds |  |
| PPP2R1B structural subunit of the PP2A phosphatase complex (from UniProt P30154 1-601) | binds |  |
| PPP2CA catalytic subunit (PP2A-C) of the PP2A phosphatase complex (from UniProt P67775 1-309) (enzyme) | binds | binds |
